Experimental data taken from US20230356105A1, “TETRAAZADODECANE BASED CHELATING AGENTS FOR SEPARATION OF RARE EARTH ELEMENTS AND METHOD THEREFOR” (Ustav Organicke Chemie a Biochemie AV CR V.V.I., priority 2020, published 2023).

Key:
Type in all cases: physicochemical
[1] = Separation of Nd/Pr mixture by repeated precipitation using L5 and α-HIBA (Example 19); conditions: all samples
Method: Stock solutions were pipetted into 4 mL glass vials to prepare reaction mixtures with concentrations as follows: • 1. 11 mM (1.1 eq) chelator L5 • 2. 5 mM (0.5 eq) PrCl3 • 3. 5 mM (0.5 eq) NdCl3 • 4. […] (4 eq) α-HIBA pH=6.5 • 5. 500 mM (50 eq) MOPS pH=7
Three aqueous reaction mixtures, numbered 1-3, were prepared with a total volume of 2 mL each and were treated identically throughout the process. A PTFE-coated magnetic stir bar was added to each and the reaction mixtures were stirred on a magnetic stirrer overnight at room temperature. […] The Nd and Pr content of these precipitate and supernatant samples was determined by ICP-OES. […] A sample of the supernatant was analysed on HPLC-MS and peak areas were compared to those of a standard 10 mM chelate solution; this allowed for calculation of the approximate concentration of chelate remaining in solution, and therefore of the quantity of chelate which had precipitated. The total volume for subsequent reactions was scaled according to this information, such that the concentration of chelate in solution prior to precipitation was 10 mM, even as the net quantity of chelate present was reduced. […] 4 molar equivalents of a-HIBA were added to this vial, followed by 50 molar equivalents 3 M MOPS pH=7, the necessary calculated volume of water, and 25 molar equivalents 2 M NaOH to finish neutralising the reaction mixture. […]

[2] = Separation of Tb/Dy mixture by repeated precipitation using L5 and α-HIBA (Example 20)
Method: Analogous to Example 19, three reaction mixtures were prepared with the following changes: the rare-earth elements were Tb and Dy, and 0.5 molar equivalents (5 mM reaction concentration) of α-HIBA were used. Otherwise, the experiment was run analogously to Example 19.
The resulting absolute concentrations of both metals in the supernatants and precipitates, as well as calculated values of the separation factor Dy/Tb according to the formula from Example 11), are summarized in Table 14. […] The average separation factor was 2.32.

[3] = Separation of Eu/Yb mixture by precipitation from water/acetonitrile solutions using L5 (Example 17)
Method: 3 reaction mixtures, differing in acetonitrile content (group A=10%, group B=20%, group C=50%) were prepared in plastic round-bottom 2 mL Eppendorf tubes, each in duplicate. For group A, the stock solutions were pipetted as follows: 5 μL 100 mM aqueous solution of EuCl3; 5 μL 100 mM aqueous solution YbC13; 10 μL 100 mM aqueous solution of compound L5; 20 μL 3 M MOPS buffer pH=7; 50 μL water; 10 μL acetonitrile.
For group B, the stock solutions were pipetted as follows: 5 μL 100 mM aqueous solution of EuCl3; 5 μL 100 mM aqueous solution YbC13; 10 μL 100 mM aqueous solution of compound L5; 20 μL 3 M MOPS buffer pH=7; 40 μL water; 20 μL acetonitrile. For group C, the stock solutions were pipetted as follows: 5 μL 100 mM aqueous solution of EuCl3; 5 μL 100 mM aqueous solution YbC13; 10 μL 100 mM aqueous solution of compound L5; 20 μL 3 M MOPS buffer pH=7; 10 μL water; 50 μL acetonitrile.
Each tube was equipped with one PTFE-coated magnetic stir bar and sealed, and the mixture was stirred on a magnetic stirrer for 24 hours at room temperature. […] Concentrations of Eu and Yb in the supernatants and in the re-dissolved precipitates were determined by ICP-OES. The resulting absolute concentrations of both metals in the supernatants and precipitates, as well as calculated values of the separation factor Yb/Eu according to the formula from Example 11), are summarized in Table 11.

[4] = Use of additives to improve separation of Nd/Dy mixture by precipitation with L5 (Example 18); conditions: no additive (0 mM); 11 mM L5
Method: Stock solutions were pipetted into plastic 1×1 cm cuvettes to prepare reaction mixtures with concentrations as follows: • 1. […] 5 mM NdCl3 • 3. 5 mM DyCl3 • 4. 500 mM MOPS pH=7 • 5. the additive of interest, in a variable concentration; if possible, stock solutions were prepared from Na^+ salt forms of the compound; if not, the stock solutions were titrated by NaOH/HCl to pH=7 prior to addition (see Table 12 for additives and concentrations)
These aqueous reaction mixtures, each prepared to a total volume of 2.0 mL with the addition of water as necessary, were mixed by the use of a PTFE-coated stir bar on a magnetic stirrer. The cuvettes were sealed with transparent tape to prevent evaporation overnight. The reaction mixtures were stirred for 18 hours, at which point 500 μL aliquots of each reaction mixture were transferred into plastic 2 mL Eppendorf tubes and centrifuged. The supernatants were carefully pipetted out and transferred to a new set of tubes. The precipitate was dissolved by addition of 500 μL 1M HCl. The absolute concentration of Nd and Dy in each supernatant and precipitate was determined by ICP-OES.

Structure (SMILES): O=C(O)CN1CCN(CC(=O)O)CCN(Cc2cccc3ccccc23)CCN(CC(=O)O)CC1 [L5, 2,2′,2″-(10-(naphthalene-1-ylmethyl)-1,4,7,10-tetraazacyklododekane-1,4,7-triyl)triacetic acid]
- average separation factor Nd/Pr [1]: 1.69
- separation factor Dy/Tb ([2]; A, 1st precipitation): 2.34 and 2.33 and 2.30
- separation factor Dy/Tb ([2]; B, 2nd precipitation): 2.33 and 2.28 and 2.38
- separation factor Dy/Tb ([2]; C, 3rd precipitation): 2.26 and 2.34 and 2.33
- average separation factor Dy/Tb ([2]; all samples): 2.32
- Separation factor Eu/Yb ([3]; group A, 10% acetonitrile): 74 and 105 and 90
- Separation factor Eu/Yb ([3]; group B, 20% acetonitrile): 74 and 53 and 64
- Separation factor (Dy/Nd) [4]: 5.5

Values joined by “and” are separate entries in the source; they are usually repeats but may differ in a detail not shown here. Equal entries are not always repeated.
